This passage reports binding results from article PMC8608845.

The assay concerns the target T1, TRIB1-glutathione-S-transferase fusion protein (UniProt Q8K4K4).
T1 sequence: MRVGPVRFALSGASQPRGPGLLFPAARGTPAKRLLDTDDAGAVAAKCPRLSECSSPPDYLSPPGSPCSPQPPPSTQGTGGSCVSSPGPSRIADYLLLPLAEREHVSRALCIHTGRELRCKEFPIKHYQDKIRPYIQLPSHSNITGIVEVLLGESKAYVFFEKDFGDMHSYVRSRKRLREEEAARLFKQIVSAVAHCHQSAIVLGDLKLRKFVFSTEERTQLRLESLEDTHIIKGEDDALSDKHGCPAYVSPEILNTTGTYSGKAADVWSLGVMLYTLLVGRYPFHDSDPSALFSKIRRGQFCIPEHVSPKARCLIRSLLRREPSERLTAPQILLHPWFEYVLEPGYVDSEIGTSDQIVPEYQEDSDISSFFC
In words: pull-down; GST-tagged Trib1 held on GST agarose gel, incubated with extracted BAT protein at a low temperature overnight, washed five to six times, eluted by boiling in loading buffer, Western blot with UQCRC2 antibody (the paper calls it co-immunoprecipitation); only the target purified. In general terms: A western blot detects proteins with antibodies after separation by electrophoresis.

No constants are given. Whether binding was seen depends on the method and setting. Binding seen in cells or lysates may run through a third protein. Some binding calls cover weakened binding; strength is not graded here. Tags and fused reporters may be left off the sequences shown.

B1: UQCRC2, mitochondrial respiratory chain complex III subunit (protein, UniProt Q9DB77 15-453)
chain: SLKVAPKVKTSAAPGGVPLQPQDLEFTKLPNGLVIASLENYAPLSRIGLFVKAGSRYEDSNNLGTSHLLRLASSLTTKGASSFKITRGIEAVGGKLSVTATRENMAYTVEGIRSDIEILMEFLLNVTTAPEFRRWEVAALRSQLKIDKAVAFQNSQTRIIENLHDVAYKNALANPLYCPDYRMGKITSEELHYFVQNHFTSARMALVGLGVSHSVLKQVAEQFLNMRGGLGLAGAKAKYRGGEIREQNGDNLVHAAIVAESAAIGNAEANAFSVLQHLLGAGPHIKRGNNTTSLLSQSVAKGSHQPFDVSAFNASYSDSGLFGIYTISQAAAAGEVINAAYNQVKAVAQGNLSSADVQAAKNKLKAGYLMSVETSEGFLSEIGSQALAAGSYMPPSTVLQQIDSVADADVVKAAKKFVSGKKSMAASGNLGHTPFLDEL
Turning to B1, the binding entry is given as “binds”.
